# Experimental data reported in PubChem BioAssay AID2417 (National Center for Advancing Translational Sciences (NCATS), 2010).
# About 4,300 (3.1%) of roughly 140,000 compounds were called active. The shares of active, inactive and inconclusive entries below differ from those in the screen.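 Rule for the calls: active = readout at or below -70, meaning at least 70% loss of cells showing the perinucleolar compartment, a nuclear body marking cancer cells; inconclusive = readout between -30 and a set limit; inactive = the rest.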
# Assay: High Content Assay for Compounds that inhibit the Assembly of the Perinucleolar Compartment;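 note: plate controls were DMSO wells for no effect and camptothecin positive control wells for full effect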
# Settings: PC3M PTB-GFP, PNC prevalence imaging, 16 h; at 10 µM; hits give low values
# In short: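 PC3M cells stably expressing PTB-GFP, 750–1000 cells/well, treated 16 h at 37 °C with compound (23 nl of library stock), in duplicate. After paraformaldehyde fixation and Hoechst stain, imaged at 20x; PNC prevalence scored by image analysis.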
row,SMILES,"activity change (PNC), negative = inhibition"
1,CCOC(=O)c1nnn(-c2nonc2NC(C)=O)c1C,inconclusive: -30.8%
2,Cc1ccc(/C=C/C(=O)N2CCN(S(=O)(=O)c3ccc(C)c(C)c3)CC2)o1,inconclusive: -31.5%
3,COc1ccccc1N1CCN(CC(O)COc2c(OC)cccc2OC)CC1 (stereo not given),inactive: 21.2%
4,CCOC(=O)c1cn(-c2ccc([N+](=O)[O-])cc2)c2cc(Cl)c([N+](=O)[O-])cc2c1=O,inconclusive: -73.5%
5,O=C(O)c1cc2sccc2s1,inconclusive: -70.2%
6,Cc1ccc(SCc2noc(C(=O)NC(C)C)c2C(=O)O)cc1C,inactive: -1.15%
7,Cc1cc(Nc2ccccc2)c2c([N+](=O)[O-])c(C)cc(C)c2n1,inconclusive: -58%
8,CC(C)Oc1ccc(CNC(=O)CC(c2ccccc2)c2cc(Cl)ccc2O)cc1 (stereo not given),inactive: 71.1%
9,Cn1c2ccccc2c(=O)c2c(=O)n(C3CCCCCC3)c(C3CCCCC3)nc21,inconclusive: -42.7%
10,COc1ccccc1-c1c(C)nn2c(N3CCCCCC3)cc(C)nc12,inconclusive: -55.7%
11,COc1ccc(-n2c(C)cc(C=O)c2C)cc1Cl,inactive: -23.7%
12,Cc1cc(C)nc(SC2CCCCC2O)n1 (stereo not given),inconclusive: -40%
13,Cn1c(/C=C/c2ccc([N+](=O)[O-])o2)nc2ccccc2c1=O,inconclusive: -53.5%
14,O=C(NC1CCN(C(=S)NCc2ccco2)CC1)NC12CC3CC(CC(C3)C1)C2,inconclusive: -53.6%
15,Cc1ccc2[nH]c3c(c2c1)CN(C(=O)CN(C)CC1OCCO1)CC3,inconclusive: -31.1%
16,COc1ccccc1NC1=C(C)C(=O)CC1,inconclusive: -49.9%
17,COCCN1Cc2cccc(C(=O)Nc3cccnc3)c2C1=O,inconclusive: -61.3%
18,CCCC/C(C)=N/NC(=O)Nc1ccccc1,inactive: 47.9%
19,Cc1onc(-c2ccccc2)c1C(=O)Nc1cccnc1,inconclusive: -31%
20,O=C(Nc1ccccc1)C1CC(=O)N(c2ccc3c4c(cccc24)CC3)C1 (stereo not given),inconclusive: -56.2%
21,Oc1c(Cl)cc(Cl)c(Cl)c1Cc1c(O)c(Cl)cc(Cl)c1Cl,inconclusive: -79%
22,CCNC(=O)NS(=O)(=O)c1cnccc1Nc1cccc(Cl)c1,active: -89.6%
23,CC(C)CNc1nc(=S)nc(N(C)C)[nH]1,inconclusive: -47.9%

row,SMILES,"activity change (PNC), negative = inhibition"
1,CC(C)CNC(=O)c1ccc(NC(=O)c2ccccc2[N+](=O)[O-])cc1,active: -84.5%
2,CCOC(=O)N1CCN(S(=O)(=O)c2ccc3[nH]c(=O)sc3c2)CC1,inconclusive: -52.4%
3,O=c1cc(Cn2nnc(-c3ccc(Cl)cc3)n2)nc2sccn12,inconclusive: -43%
4,Cn1cccc1CC(=O)NNC(=S)Nc1ccc(F)cc1,inactive: 4.82%
5,O=C(CCCCCC(=O)N(CCO)CCO)N(CCO)CCO,inconclusive: -37.6%
6,CCOC(=O)c1c(NC(=O)C2COc3ccccc3O2)sc2c1CC(C)(C)NC2(C)C (stereo not given),inconclusive: -70.7%
7,CCCCn1c(SCC(=O)N2CCOCC2)nnc1-c1cccs1,inactive: 101%
8,CCN1CCN(C(C(=O)NC2CCCCC2)c2ccc(Cl)cc2)CC1 (stereo not given),inconclusive: -42.5%
9,C[C@@H](C(=O)NCc1ccccn1)[C@H]1C[C@]1(C)[C@H](NC(=O)OCc1ccccc1)c1ccccc1,inconclusive: -51.1%
10,CCC(C)C(=O)Nc1nc2c(s1)C(=O)CC(C)(C)C2 (stereo not given),active: -119%
11,O=C(Cn1c(C(F)(F)F)nc2ccccc21)NCCCN1CCOCC1,inconclusive: -35.2%
12,O=C(NCc1ccccc1)N(Cc1cc2cc3c(cc2[nH]c1=O)OCCO3)CC1CCCO1 (stereo not given),inactive: 13.1%
13,Cc1ccc(NC(=O)c2ccc3nc[nH]c3c2)cc1C,inconclusive: -44.5%
14,O=C(NCCc1ccc2c(c1)OCCO2)c1ccc(F)cc1,inconclusive: -49.4%
15,CCCCC[C@H](O)/C=C/C1=C(CCCCCCC(=O)O)C(=O)CC1,active: -115%
16,CC1CCCN(C(=O)c2sc3cc([N+](=O)[O-])ccc3c2Cl)C1 (stereo not given),inactive: 63.1%
17,C(=N\N1CCN(C2c3ccccc3-c3ccccc32)CC1)/c1cccs1,inconclusive: -49.2%
18,C=CCNC(=O)c1nn2cccnc2c1Cl,inconclusive: -45.9%
19,O=C(NCc1cccnc1)/C(=C\c1ccc(-c2cccc(Cl)c2)o1)S(=O)(=O)c1ccccc1,inconclusive: -51%
20,Cc1ccc(C=Nc2cccnc2N)cc1,inactive: -11.3%
21,Nc1c(C(=O)NC2CC2)c2nc3ccccc3nc2n1-c1ccc2c(c1)OCO2,inconclusive: -40.1%
22,Cn1ncc(Cl)c1C(=O)Nc1ccncc1,inconclusive: -49.6%
23,O=C1NC(=S)N(c2cccc(Cl)c2)C12CCCCC2,inconclusive: -32.6%

# Entries from the list above that have a COOH group:
row,SMILES,"activity change (PNC), negative = inhibition"
5,O=C(O)c1cc2sccc2s1,inconclusive: -70.2%
6,Cc1ccc(SCc2noc(C(=O)NC(C)C)c2C(=O)O)cc1C,inactive: -1.15%
15,CCCCC[C@H](O)/C=C/C1=C(CCCCCCC(=O)O)C(=O)CC1,active: -115%

# Additional results follow.

row,SMILES,"activity change (PNC), negative = inhibition"
1,Cc1ccccc1OCC(=O)N(Cc1ccc(N(C)C)cc1)C1CCS(=O)(=O)C1 (stereo not given),inactive: -10.2%
2,COc1cccc(-c2noc(CCC(=O)NC3CCCCC3)n2)c1,inactive: -10.6%
3,CCCC(=O)Nc1ccccc1-c1nnn(CC(=O)Nc2ccc(OC)cc2)n1,active: -80.6%
4,O=C(COC(=O)c1c2ccccc2cc2ccccc12)NCC(F)(F)F,inconclusive: -41.9%
5,Cc1ccc(CCN2CC(C(=O)NCCN3CCCCCC3)CC2=O)cc1 (stereo not given),inactive: -12%
6,COc1ccc(-c2cc(C(F)F)n3ncc(C(=O)N4CCSCC4)c3n2)cc1,inconclusive: -31.9%
7,Cc1cccc(Nc2ncc3c(n2)CC(C)CC3=O)c1 (stereo not given),inconclusive: -35.5%
8,Cc1ccc(C)c(N2C(=O)CC(N3CCN(Cc4ccc5c(c4)OCO5)CC3)C2=O)c1 (stereo not given),inactive: 55.3%
9,CC1SC(c2ccc(Cl)cc2Cl)NC1=O (stereo not given),inactive: 25.2%
10,CC(C)[C@H](NS(=O)(=O)c1cccc(Cl)c1)C(=O)OCC(=O)N1CCN(c2ccccc2)CC1,inactive: -27.7%
11,COc1cccc(N2C(=O)C3C(C2=O)C2C=CC3C23CC3)c1 (stereo not given),inconclusive: -65.3%
12,C=CCNC(=O)c1ccccc1NC(=O)c1ccccc1C,active: -100%
13,O=C(NC1(C(F)(F)F)NC(=O)N(Cc2ccco2)C1=O)c1cccs1 (stereo not given),inconclusive: -67.4%
14,Cc1ccc(OC(=O)NC2CCS(=O)(=O)C2)cc1C (stereo not given),inconclusive: -44.9%
15,Cc1ccc(C(=O)c2cc([N+](=O)[O-])ccc2N2CCCCC2)cc1,active: -110%
16,Cn1c(SCC(=O)NCc2ccc3c(c2)OCO3)nnc1C1COc2ccccc2O1 (stereo not given),inactive: -0.85%
17,COc1cccc(NC(=O)[C@@H]2CCCN2C(=O)C2CCN(S(=O)(=O)c3ccc(C)cc3)CC2)c1,inconclusive: -32.9%
18,COc1ccc(-n2c(SCC(=O)c3c(N)n(C)c(=O)n(C)c3=O)nc3ccccc32)cc1,inconclusive: -35.7%
19,O=C(CN1CCN(C(=O)c2ccco2)CC1)Nc1ccccc1-c1ccccc1,inconclusive: -54.3%
20,O=C1C2C3C=CC(C4CC34)C2C(=O)N1/N=C/c1ccc(-c2cccc([N+](=O)[O-])c2)o1 (stereo not given),inactive: -16.1%
21,COc1ccccc1NC(=O)c1ccccc1NC(=O)c1cc(Cl)ccc1NC(=O)c1ccco1,inconclusive: -35.9%
22,Cc1cc(NC(=O)/C=C/c2ccccc2)no1,inactive: -24.2%
23,Cc1cc(=O)n(CNC(=O)c2ccccc2)c(=S)[nH]1,inconclusive: -49.3%

# Rewritten as tab-separated lines: 3 of the compounds above
row	SMILES	activity change (PNC), negative = inhibition
5	O=C(CCCCCC(=O)N(CCO)CCO)N(CCO)CCO	inconclusive: -37.6%
6	CCOC(=O)c1c(NC(=O)C2COc3ccccc3O2)sc2c1CC(C)(C)NC2(C)C (stereo not given)	inconclusive: -70.7%
7	CCCCn1c(SCC(=O)N2CCOCC2)nnc1-c1cccs1	inactive: 101%

# (more compounds)

row,SMILES,"activity change (PNC), negative = inhibition"
1,COc1ccc(N2CCN(C(=O)CN(c3ccccc3)S(C)(=O)=O)CC2)cc1,inconclusive: -31.2%
2,Cc1ccc(NC(=O)c2ccc(NCC3CCCO3)c([N+](=O)[O-])c2)cc1Cl (stereo not given),inconclusive: -66.8%
3,COc1cccc(SCc2noc(C(=O)NCC3CCCO3)c2C(=O)O)c1 (stereo not given),inactive: 63.1%
4,CN1C2CCC1/C(=C/c1cccn1C)C(=O)/C2=C\c1cccn1C,inactive: 17%
5,COc1cccc(C2=NOC(C(=O)NC(C)C)C2)c1 (stereo not given),inconclusive: -36.1%
6,CCSc1nnc(NC(=O)CC)s1,inactive: -13.5%
7,CSc1ccc(C#N)cc1NC(=O)c1ccc(Cl)cc1Cl,inconclusive: -57.8%
8,Cc1ccc(C2(C)NC(=O)N(CC(=O)NCc3cccs3)C2=O)cc1 (stereo not given),active: -108%
9,COc1cc(/C=N/NC(=S)N/N=C/c2cc(OC)c(OC)c(OC)c2)cc(OC)c1OC,active: -109%
10,Cn1c(N)c(S(=O)(=O)c2ccc(Br)cc2)c2nc3ccccc3nc21,inconclusive: -43.8%
11,CCOCCCn1c(=O)c(NC(=O)c2ccc(OCC)cc2)c2n(c1=S)CCCCC2,inconclusive: -60.4%
12,CCOC(=O)C1CCN(c2ccc(C(N)=O)cc2[N+](=O)[O-])CC1,inactive: -11.6%
13,COc1ccccc1NC(=O)N(Cc1cccs1)Cc1cc2cc3c(cc2[nH]c1=O)OCO3,inactive: 24.8%
14,CN(C)c1ccc(P(=O)(Nc2ccc([N+](=O)[O-])cc2)N2CCOCC2)c(NC(=O)c2cccs2)c1 (stereo not given),active: -80.1%
15,CCc1ccccc1NC(=O)CN1C(=O)C2CCCN2c2ncc(Cl)cc21 (stereo not given),inconclusive: -56.5%
16,O=S(=O)(c1ccccc1)N1C2CCC1CC(O)(c1cccnc1)C2 (stereo not given),inactive: 14.7%
17,CN=C(C)C1=C(O)C(C(=O)OC)C(C)(C)CC1=O (stereo not given),inconclusive: -36%
18,CCOc1c2ccc(C(=O)NCc3ccc(OC)cc3)cc2nn1CCOC,inconclusive: -34.5%
19,Cc1cc(O)ccc1-c1cnc2ccccc2n1,inconclusive: -58.8%
20,Cc1ccccc1N1CCN(C(=S)c2ccc([N+](=O)[O-])cc2)CC1,inconclusive: -42.4%
21,COc1ccc(C(=O)NCCn2ccc3ccccc32)cc1,inconclusive: -33.8%
